Experimental data from US10487068B2, “Pyridazine derivatives as RORc modulators” (Genentech, Inc., priority 2015, dated 2019).
Where “and” joins values, the source holds several entries; their conditions need not be identical. Identical values can stand only once. Structures were worked out from names or drawings and are uncertain.

The chains behind the UniProt entries cited, without tags or fusion partners. Residues count along the entry.
UniProt P51449, 269-508 limits assumed: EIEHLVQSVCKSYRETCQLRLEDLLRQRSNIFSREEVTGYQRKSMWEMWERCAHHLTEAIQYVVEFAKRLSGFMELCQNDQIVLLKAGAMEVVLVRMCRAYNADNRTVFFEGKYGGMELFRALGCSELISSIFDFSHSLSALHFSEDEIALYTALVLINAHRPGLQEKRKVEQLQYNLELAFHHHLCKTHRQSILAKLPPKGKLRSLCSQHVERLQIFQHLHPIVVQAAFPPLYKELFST

Biological target: RORc ligand binding domain (Homo sapiens, UniProt P51449)
Experiment: In Vitro RORc Ligand Binding Assay
Details: read-out: RORc IC50; radioligand 25-[3H]hydroxycholesterol 6 nM; 0.6 ug/mL RORc receptor; 3 h at 25° C.

CC(C)(O)c1cn(-c2cncc([C@@]34CC[C@@H](c5cc(-c6c(F)cccc6F)nnc53)C4(C)C)n2)cn1
IC50: 4.2 nM and 2.5 nM
